Results as given in publication PMC7819943, “Rice protein-binding microarrays: a tool to detect cis-acting elements near promoter regions in rice”.
Some of the results follow.

The chains behind the UniProt entries cited, without tags or fusion partners.
UniProt Q0JBA9, entry or part of it: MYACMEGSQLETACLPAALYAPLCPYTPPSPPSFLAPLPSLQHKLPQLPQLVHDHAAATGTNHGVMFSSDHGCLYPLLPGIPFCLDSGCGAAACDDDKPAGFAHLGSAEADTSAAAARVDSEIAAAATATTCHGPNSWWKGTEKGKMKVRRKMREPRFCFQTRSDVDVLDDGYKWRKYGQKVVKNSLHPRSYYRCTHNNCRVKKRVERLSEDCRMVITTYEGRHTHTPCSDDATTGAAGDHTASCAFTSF

molecular target: OsWRKY34 (Oryza sativa, UniProt Q0JBA9 1-250); test: protein-binding microarray (RPBM); PBS, 2% BSA, 51.3 ng/ul salmon testes DNA, 50 uM zinc acetate, 200 nM TF, 25 C, 1 h; high values mean tight binding; settings: protein: recombinant; tags: N-terminal polyhistidine and DsRed monomer fusion (pET32a); label: CyDye5-dUTP incorporated in the synthesized complementary strand; 3' TTTTT single-stranded linker to array surface; dsDNA, one strand shown
In short: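 Per-feature fluorescence intensity (arbitrary units), read on an Axon 4000B scanner, is the binding signal. Transcription factors carrying an N-terminal polyhistidine tag and DsRed fusion were expressed in E. coli BL21-CodonPlus and purified on Ni–NTA. A custom Agilent array, made double-stranded by primer extension with Cy5-dUTP and blocked with 2% BSA, was incubated with 200 nM protein in PBS, 2% BSA, salmon testes DNA and 50 µM zinc acetate at 25 °C for 1 h and then washed.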

Going from “TTGTCGCTGCGCCTGCGTCCGATTCACCGTCGCGCCGCCGCGGAGTCACCTAGTGCAG” to “AATTCTATATTCCATGCTCGTTACTGGGTTTCAGTTGACACGGAGTCACCTAGTGCAG”, the binding signal falls from 9570 fluorescence intensity (a.u.) to 8140 fluorescence intensity (a.u.).

Compared with “GACTACGCTTAATACTTCAAATATATATCCGTATATCCGACGGAGTCACCTAGTGCAG”, “CTTAATTTGCCAGCTGCTTGTGTGTTCTCCTTGCCGATCCCGGAGTCACCTAGTGCAG” is higher in binding signal: 8070 fluorescence intensity (a.u.) for the first, 12200 fluorescence intensity (a.u.) for the second.

First: TTACATTACTCCGCCCGCTGCGGCGAGGATTCCCTCGATCCGGAGTCACCTAGTGCAG
Second: GACGGATTGCTTTGTGCATTGTCAATCAGTACATCCTCTTCGGAGTCACCTAGTGCAG
The binding signal of the first is higher: 8590 fluorescence intensity (a.u.) for the first, 8030 fluorescence intensity (a.u.) for the second.

First: TGATTATCGTTATTGACCTCCTTTTGGTCTCGCGCCCACTCGGAGTCACCTAGTGCAG
Second: AGCCCATCTCGGACATATCTCCGGCCTACTTAGCCCATCACGGAGTCACCTAGTGCAG
The binding signal of the first is higher: 9810 fluorescence intensity (a.u.) for the first, 9050 fluorescence intensity (a.u.) for the second.

Compared with “TCTTTCGGTGTCCTATAGCAAATTTTGCCATGTATGAATTCGGAGTCACCTAGTGCAG”, “AAACCAGCGACACGTTCCTGTCTTCCTCATATTTACTAAACGGAGTCACCTAGTGCAG” is lower in binding signal: 8680 fluorescence intensity (a.u.) for the first, 8540 fluorescence intensity (a.u.) for the second.

Compared with “TGATCTCCGTCCACCTGCCGGCCTGGGCGCACACCGCGCCCGGAGTCACCTAGTGCAG”, “TGTTTGGTGCACCTTTTTTTTCAAACCTTGTAATTTTGGACGGAGTCACCTAGTGCAG” is lower in binding signal: 11400 fluorescence intensity (a.u.) for the first, 8950 fluorescence intensity (a.u.) for the second.

Compared with “TGCTCTTACGGTCATTCCTTTTCCGTAGCATTGGCCCAAACGGAGTCACCTAGTGCAG”, “TCCCTCCAGGACATTTTTTTTCTTTAAGCTAGCTTATGGACGGAGTCACCTAGTGCAG” is higher in binding signal: 8060 fluorescence intensity (a.u.) for the first, 9190 fluorescence intensity (a.u.) for the second.

First: TCATTTAAATTTCTTCCTATTTTATCCTCAACTACCATTTCGGAGTCACCTAGTGCAG
Second: AACACCACCACTGATCATCACTAGCTTTCTACTTGTAGAACGGAGTCACCTAGTGCAG
The binding signal of the first is lower: 9010 fluorescence intensity (a.u.) for the first, 12400 fluorescence intensity (a.u.) for the second.

First: GCCAAAGTTTCACCCGTTCATACACTTATCCCATATAAAACGGAGTCACCTAGTGCAG
Second: CTCCCCATCAGTCGCCGCGCCACCGCCCCATCGATCTCCGCGGAGTCACCTAGTGCAG
The binding signal of the first is lower: 8200 fluorescence intensity (a.u.) for the first, 12400 fluorescence intensity (a.u.) for the second.

Going from “GACGTTTGATGTCGCGGTTCCGGTATTTACATAGTATGGGCGGAGTCACCTAGTGCAG” to “CAATCCGGTCATTTCACATCAGCATCCGTGTACAGATATTCGGAGTCACCTAGTGCAG”, the binding signal rises from 9810 fluorescence intensity (a.u.) to 10300 fluorescence intensity (a.u.).

Going from “CACCAATTCCGTCTTTCCTCTGCGTGCAAATTCCGTCTTCCGGAGTCACCTAGTGCAG” to “GGGTTCTTATATGGAAACTTCTTTCAATATTGCTTATTTTCGGAGTCACCTAGTGCAG”, the binding signal falls from 8740 fluorescence intensity (a.u.) to 8300 fluorescence intensity (a.u.).

“AAGTAGAGTGGACATTTCTTTTTTTCCTTTTCAATCTTCCCGGAGTCACCTAGTGCAG” was tested, and the binding signal was 8890 fluorescence intensity (a.u.).
